A short description of the assay: qHTS Assay for Modulators of Lamin A Splicing. The settings on record: HeLa LMNA splicing GFP/RFP minigene ratio, 48 h. In a few lines: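 S3 HeLa stable clones carrying a lamin A-EGFP splicing minigene plus DsRed2 were seeded at 600 cells/well in Opti-MEM with 2% FBS, pin-dosed and incubated 48 h at 37°C. Acumen cytometry (488 nm) gave the GFP/RFP total-intensity ratio.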

The mark [1] stands for this setting: measured here: RFP viability control channel.
Setting [2] is: measured here: GFP splicing reporter channel.

Values joined by “and” are separate entries in the source; they are usually repeats but may differ in a detail not shown here. Equal entries are not always repeated. Some of the results follow. Further columns of the screen follow, without active or inactive calls. Compounds called inactive in the main read-out are mostly missing here. Potencies come from curve fits of mixed quality, noted in brackets.

Regarding `Nn1c(Cc2cccc3ccccc23)nnc1SCc1c(Cl)cccc1Cl`, the concentration at half-maximal activity (AC50) under setting [1] is 11.2 µM [rising, partial curve].

Turning to `N#Cc1cc(Oc2cccc3cccnc23)c(-n2nnc3ccccc32)cc1C#N`, the concentration at half-maximal activity (AC50) under setting [1] is 17.8 µM [falling, partial curve].

For `CCn1c2ccccc2c2cc(C3C(C#N)=C(N)Oc4n[nH]c(COC)c43)ccc21` (stereo not drawn), the AC50 under setting [2] was 35.5 µM [falling, single point].

As for `COCCNC(=S)N1CCc2cc(OC)c(OC)cc2C1COc1cc(C)cc(C)c1` (stereo not drawn), the AC50 under setting [1] was 12.6 µM [rising, partial curve].

Turning to `Cc1sc2nc3ccc(NCc4ccco4)nn3c(=O)c2c1C`, under setting [2], the concentration at half-maximal activity (AC50) was 17.8 µM [rising, single point].

With `CCCOc1ccc(N2C(=O)CC(N(CCc3ccc(OC)c(OC)c3)C(=S)Nc3ccccc3)C2=O)cc1` (stereo not drawn), under setting [1], the AC50 was 3.55 µM [rising, full curve].

Consider `CN1CC(c2ccccc2)C2(SC(=S)N(Cc3ccco3)C2=O)C12C(=O)Nc1ccccc12` (stereo not drawn), for which the AC50 under setting [1] is 15.8 µM [rising, single point].

For `COC(=O)c1ccc(CN2C(=O)C3CCCCC3C2=O)o1` (stereo not drawn), the AC50 under setting [1] is 10 µM [falling, partial curve].

Turning to `Cc1ccc(C(=O)CSc2nnc(-c3ccccc3N)n2C)cc1`, the AC50 runs as follows: under setting [2], 0.891 µM [rising, partial curve, poor fit]; under setting [1], 7.94 µM [rising, partial curve, poor fit].

Turning to `CC1Cc2ccccc2N1C(=O)CSc1nc2ccccc2s1` (stereo not drawn), the AC50 under setting [1] is 25.1 µM [rising, single point].

Turning to `Cc1ccc2c(c1)[nH]c1c(N3CCN(Cc4ccccc4)CC3)ncnc12`, under setting [2], the AC50 was 7.08 µM [rising, full curve, poor fit].

As to `CCn1c(=O)n(CC)c2cc(S(=O)(=O)N3CCCCC3)c(C)cc21`, under setting [1], the AC50 is 12.6 µM [rising, single point].

For `COC(=O)CNC(=O)Nc1cc(C(=O)NCc2ccc(C)cc2)ccc1N1CCCC1`, the AC50 reads like this: under setting [2], 0.0112 µM [falling, full curve, poor fit]; under setting [1], 0.01 µM [falling, full curve, poor fit].

For `CN(C)c1ccc(/C=C/c2ccc3c4ccccc4ccc3[n+]2-c2ccccc2)cc1`, the AC50 under setting [1] was 5.01 µM [rising, single point].

Take `c1coc(CNc2nc(N3CCCCC3)nc3ccccc23)c1`: the AC50 under setting [1] was 22.4 µM [rising, single point].

For the compound `Cc1ccc(-n2c(O)c(/C=N/n3cnnc3)c3ccccc3c2=O)cc1`, the AC50 was 35.5 µM [falling, single point] under setting [2] and 35.5 µM [falling, single point] under setting [1].

With `O=C(Nc1ccc(F)cc1F)c1ccc(CN2CC(=O)N3CCCCC3C2=O)cc1` (stereo not drawn), the half-maximal activity concentration (AC50) under setting [1] was 0.0141 µM [falling, full curve, poor fit].

With `COc1ccc(OC)c(/C=C/C(=O)OCC(=O)Nc2ccc3c(c2)OCCO3)c1`, under setting [1], the concentration at half-maximal activity (AC50) was 22.4 µM [rising, partial curve, poor fit].

On to `CN(c1cccc(NC(=O)CN(c2ccc(C34CC5CC(CC(C5)C3)C4)cc2)S(C)(=O)=O)c1)S(C)(=O)=O`, for which the concentration at half-maximal activity (AC50) was 17.8 µM [falling, single point] under setting [2] and 31.6 µM [falling, single point] under setting [1].

`CC(C)(C)c1cc(C(C)(C)C)c2oc(=O)c(-c3nc4ccccc4[nH]3)cc2c1`: the half-maximal activity concentration (AC50) is 3.16 µM [falling, single point] under setting [2] and 2.82 µM [falling, partial curve] under setting [1].

On to `O=C(CSc1nc2ccccc2c2nc(-c3ccccc3)nn12)Nc1ccc(Br)cc1`, for which the concentration at half-maximal activity (AC50) reads like this: under setting [2], 0.00447 µM [falling, full curve, poor fit]; under setting [1], 0.00708 µM [falling, full curve, poor fit].

For `COc1cc(C(=O)NNC(=S)NC(=O)c2ccccc2C)cc(OC)c1OC`, the AC50 is 10 µM [rising, partial curve, poor fit] under setting [2] and 14.1 µM [rising, single point] under setting [1].

In the case of `C/C(NC(=O)c1ccccc1)=C1/C(=O)CC2C1C2(C)C` (stereo not drawn), the AC50 is, setting by setting: under setting [2], 11.2 µM [rising, partial curve]; under setting [1], 5.62 µM [rising, full curve].

As to `COc1ccccc1-c1nnc(SCC(=O)Nc2c(Cl)cccc2Cl)o1`, under setting [1], the AC50 was 35.5 µM [rising, single point].

On to `Cc1cc(C(=O)CSc2nc(N)cc(N)n2)c(C)n1CCc1ccc(F)cc1`, for which, under setting [1], the concentration at half-maximal activity (AC50) is 15.8 µM [rising, partial curve].

With `Cc1c(CCO)c(=O)[nH]n1C(=O)c1c(F)cccc1F`, the half-maximal activity concentration (AC50) under setting [1] is 20 µM [rising, single point].

For `CC1Cc2nc(SCC(=O)N3CCN(c4ccccc4)CC3)n(C)c(=O)c2S1` (stereo not drawn), the AC50 by setting is: under setting [2], 5.62 µM [rising, single point]; under setting [1], 3.16 µM [rising, single point].

For the compound `COc1cc2c3c(c1)C1(C(=O)N3C(C)(C)C=C2C)C(C#N)=C(N)Oc2cc(C)oc(=O)c21` (stereo not drawn), the half-maximal activity concentration (AC50) under setting [2] was 10 µM [falling, partial curve] and the AC50 under setting [1] was 0.0224 µM [falling, full curve, poor fit].

As for `COn1c(SC2CCCCC2)nc2ccccc2c1=O`, the concentration at half-maximal activity (AC50) under setting [1] was 22.4 µM [rising, single point].

Regarding `Cc1nn(-c2ccccc2)c(Cl)c1C(=O)Nc1nnc(C2CCCCC2)s1`, the half-maximal activity concentration (AC50) under setting [2] is 0.708 µM [falling, full curve, poor fit].

In the case of `COC(=O)c1c(NC(=O)COC(=O)CNC(=O)c2ccco2)sc(C)c1C`, the concentration at half-maximal activity (AC50) under setting [1] was 0.158 µM [falling, full curve, poor fit].

On to `CCOC(=O)C1=C(N)OC2=C(C(=O)CCC2)C1c1ccco1` (stereo not drawn), for which, under setting [1], the AC50 was 2.82 µM [rising, partial curve].

With `COc1ccc(CN2CCCC(C(=O)c3cccc(OC(C)C)c3)C2)cc1Cn1cccn1` (stereo not drawn), the concentration at half-maximal activity (AC50) by setting is: under setting [2], 15.8 µM [falling, single point]; under setting [1], 35.5 µM [falling, single point].

`COc1ccc(-c2[nH]ncc2CN2CCC(N3CCSCC3)CC2)c(F)c1`: the concentration at half-maximal activity (AC50) under setting [2] was 35.5 µM [falling, partial curve, poor fit].

Regarding `CCCCC(=O)Nc1ccc2c3c(cccc13)C(=O)N2CC`, the concentration at half-maximal activity (AC50) under setting [2] was 17.8 µM [falling, single point].

Turning to `CC(C)c1ccc(S(=O)(=O)Nc2ccc(SC(F)F)cc2)cc1`, the half-maximal activity concentration (AC50) was 15.8 µM [rising, single point] under setting [2] and 31.6 µM [rising, single point] under setting [1].

Consider `Cc1ccc(C)c(NC(=O)Cn2nc(C)c3nn(-c4ccc(Cl)cc4)c(C)c3c2=O)c1`, for which, under setting [1], the AC50 is 10 µM [falling, single point].

For the compound `CCOc1ccc(C(=O)Nc2cc(NC(=O)c3ccc(OCC)c(Cl)c3)cc(C(=O)O)c2)cc1Cl`, the AC50 runs as follows: under setting [2], 0.0501 µM [falling, full curve, poor fit]; under setting [1], 0.02 µM [falling, full curve].

For the compound `COc1ccc(NC(=O)CSc2ncc(-c3ccc(F)cc3)n2Cc2ccco2)cc1`, the AC50 under setting [1] was 22.4 µM [rising, single point].

As for `CC(C)(C)C(=O)C(Oc1ccc(Cl)cc1)n1ccnc1` (stereo not drawn), the AC50 is, setting by setting: under setting [2], 7.08 µM [falling, full curve, poor fit]; under setting [1], 35.5 µM [rising, single point].

Take `CCNc1nc(NCC)n2c(SCC(=O)c3ccccc3F)nnc2n1`: the half-maximal activity concentration (AC50) under setting [1] was 11.2 µM [rising, partial curve].

On to `CC(=O)N1CCCc2cc(S(=O)(=O)N3CCN(c4ccccc4F)CC3)ccc21`, for which, under setting [2], the AC50 was 20 µM [rising, partial curve, poor fit].

For `COc1ccc(/C=C2\CN(Cc3ccccc3)C/C(=C\c3ccc(OC)cc3)C2=O)cc1`, the concentration at half-maximal activity (AC50) runs as follows: under setting [2], 35.5 µM [falling, single point]; under setting [1], 35.5 µM [falling, single point].

As for `NC(=NCCCCCCN=C(N)/N=C(\N)Nc1ccc(Cl)cc1)/N=C(\N)Nc1ccc(Cl)cc1`, the AC50 under setting [2] is 3.16 µM [falling, single point] and 31.6 nM [rising, full curve, poor fit]; the AC50 under setting [1] was 1.78 µM [falling, full curve] and 35.5 nM [rising, full curve, poor fit].

As for `O=C(CN1CCN(Cc2ccccc2)CC1)Nc1ccc([N+](=O)[O-])cc1C(=O)Nc1ccccc1F`, under setting [1], the AC50 is 22.4 µM [rising, single point].

In the case of `CC1(C)N=C(SCc2ccc(F)cc2)c2ccccc2N1`, the concentration at half-maximal activity (AC50) by setting is: under setting [2], 7.94 µM [falling, partial curve, poor fit]; under setting [1], 25.1 µM [falling, single point].

For the compound `CN1CCN(c2ccc([N+](=O)[O-])cc2C(=O)c2ccc(Cl)cc2)CC1`, the AC50 under setting [1] is 8.91 µM [rising, partial curve, poor fit].

Turning to `COc1ccc(C(=O)/C=C/c2ccc(OC)c(Cn3nnc4ccccc43)c2)cc1`, the AC50 was 2.82 µM [falling, partial curve] under setting [2] and 3.16 µM [falling, partial curve] under setting [1].

As to `CC1CCCCN1CCCNC(=O)c1cc(Sc2cccc(Cl)c2)nc2ccccc12` (stereo not drawn), the AC50 under setting [2] is 0.891 µM [falling, full curve, poor fit] and the concentration at half-maximal activity (AC50) under setting [1] was 0.282 µM [falling, partial curve, poor fit].

In the case of `Cc1c(C(=O)OC2CCC(C)CC2)[nH]c2c1C(=O)CCC2` (stereo not drawn), under setting [1], the AC50 was 3.98 µM [rising, partial curve].

`COc1cccc(C(=O)Nc2cc3c(cc2C(C)=O)OCCO3)c1`: the half-maximal activity concentration (AC50) is 12.6 µM [rising, partial curve] under setting [2] and 15.8 µM [rising, partial curve] under setting [1].

Consider `Cc1nc2sccn2c(=O)c1CCN1CCC(=C(c2ccccc2)c2ccc(F)cc2)CC1`, for which the AC50 is, setting by setting: under setting [2], 15.8 µM [rising, partial curve, poor fit]; under setting [1], 17.8 µM [rising, partial curve].

The AC50 is the concentration at which the activity in the assay is half-maximal.
